Measurements: PubChem BioAssay AID504847 (National Center for Advancing Translational Sciences (NCATS), 2011)
The whole screen tested about 400,000 compounds, of which about 3,700 (0.93%) were called active. The inconclusive results got no clear call from the source; some entries with a clear call stand among them for comparison. Calls come from the whole dose curve; as a rule, active = well fitted inhibition curve with a large enough effect; inconclusive = small, poorly fitted or top-dose-only effect, or another doubt; inactive = no such curve, though single readings can be large or run the other way. Potencies of inconclusive entries are doubtful fits and often do not repeat.
% is set by controls: 0 for no effect and ±100 for the full control effect; potency is the fitted concentration of half-maximal effect.

Sequences of proteins named here, by UniProt entry; tags and fusion partners are left off. A change or cut given only in a name is not applied to a line headed by its entry.
UniProt P11473: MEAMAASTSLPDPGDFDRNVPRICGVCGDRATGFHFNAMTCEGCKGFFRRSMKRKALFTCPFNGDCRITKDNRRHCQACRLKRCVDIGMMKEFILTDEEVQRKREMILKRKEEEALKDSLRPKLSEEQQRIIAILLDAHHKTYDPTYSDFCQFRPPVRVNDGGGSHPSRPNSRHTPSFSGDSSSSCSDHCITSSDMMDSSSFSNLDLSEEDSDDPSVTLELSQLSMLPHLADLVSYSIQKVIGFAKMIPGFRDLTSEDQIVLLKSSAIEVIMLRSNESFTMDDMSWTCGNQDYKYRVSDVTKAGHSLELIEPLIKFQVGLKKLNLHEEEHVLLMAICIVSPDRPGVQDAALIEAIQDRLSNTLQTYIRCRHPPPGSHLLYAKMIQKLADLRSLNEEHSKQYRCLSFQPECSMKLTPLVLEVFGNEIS

The compounds below were run against Vitamin D3 receptor (Homo sapiens) (UniProt P11473) (assay: Inhibitors of the vitamin D receptor (VDR): qHTS). Conditions: VDR-SRC2-3 peptide fluorescence polarization, 2 h; max response, negative = inhibition: hits give low values.
Method in brief: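 The screen uses fluorescence polarization to detect compounds that interfere with recruitment of the SRC2-3 coactivator peptide to VDR; plates are read after 2 h at room temperature.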
In the case of `CN1/C(=C\C(=O)Nc2ccc(Cl)cc2)C(C)(C)c2ccccc21`, the max response, negative = inhibition is reported as inactive: 13.2%. `O=C(O)C1CCN(c2ccc(Cl)nn2)CC1` was tested, and the Potency was inconclusive: 4.47 µM [inhibitor, full curve, poor fit]. `Cc1ccc(C2CC(C(F)F)n3ncc(C(=O)Nc4cnn(Cc5ccccc5C)c4)c3N2)cc1` (centres undefined) was tested, and the max response, negative = inhibition was inactive: -0.107%. In the case of `CC1CCC2(CC1)NC(=O)c1ccccc1O2` (centres undefined), the Potency is reported as inconclusive: 39.8 µM [inhibitor, partial curve, poor fit]. `Cn1nc(C(C)(C)C)cc1C(=O)Sc1cccc(Br)c1` was tested, and the Potency was inconclusive: 79.4 µM [inhibitor, single point]. `COc1cc(/C=C2\SC(=S)N(CCCCC(=O)O)C2=O)ccc1OS(=O)(=O)c1ccc(C)cc1` was tested, and the Potency was inconclusive: 70.8 µM [inhibitor, single point]. `CCOC(=O)CSc1c(-c2ccc(Cl)cc2)[nH]c2ccccc12` was tested, and the Potency was inconclusive: 25.1 µM [inhibitor, single point]. `Cc1ccc(NC(=S)NC(=O)C2CCCCC2)c(Br)c1` was tested, and the max response, negative = inhibition was inactive: 17.5%. `Cc1ccc(-c2nn(-c3ccccc3)cc2/C=C2\SC(=S)N(CC(=O)O)C2=O)cc1` was tested, and the Potency was inconclusive: 89.1 µM [inhibitor, single point]. For `Cc1ccc(C(C2=C(O)CC(C)(C)CC2=O)C2C(=O)CC(C)(C)CC2=O)s1` (centres undefined), the Potency was active: 50.1 µM. `COCC(=O)N1CCC2(CC1)CN(Cc1cc(C(F)(F)F)cc(C(F)(F)F)c1)C2` was tested, and the Potency was inconclusive: 89.1 µM [inhibitor, partial curve, poor fit]. For `COc1ccccc1-c1cc(C(F)(F)F)nc(S(=O)(=O)CCCC(=O)Nc2cc(C)ccc2O)n1`, the Potency was inconclusive: 14.1 µM [inhibitor, full curve]. `COC(=O)N1CCc2c(sc(NC(=O)C3COc4ccccc4O3)c2C(N)=O)C1` (centres undefined) was tested, and the Potency was active: 89.1 µM. In the case of `Cc1ccc(-n2nnnc2SCC(=O)Nc2ncc(Cc3ccccc3Cl)s2)cc1`, the Potency is reported as inconclusive: 89.1 µM [inhibitor, partial curve, poor fit]. With `Cc1cc(C)cc(NC(=O)C(NS(=O)(=O)c2cccc3nsnc23)c2ccccc2)c1` (centres undefined) the Potency was inconclusive: 100 µM [inhibitor, single point]. In the case of `CC(=O)OCC(NC(=O)C(Cc1ccccc1)NC(=O)OC(C)(C)C)C1OC(n2ccc(=O)[nH]c2=O)C(OC(C)=O)C1OC(C)=O` (centres undefined), the Potency is reported as inconclusive: 3.98 µM [inhibitor, full curve]. `O=C(Nc1ccc(Cl)cc1C(F)(F)F)c1ccccc1Cl` was tested, and the Potency was inconclusive: 44.7 µM [inhibitor, single point]. `CCC(Oc1ccccc1)C(=O)Nc1ccccc1N1CCCCC1` (centres undefined) was tested, and the max response, negative = inhibition was inactive: -15.7%. In the case of `Cc1ccc(Cl)cc1NC(=O)CSc1nncn1-c1ccccn1`, the Potency is reported as inconclusive: 70.8 µM [inhibitor, partial curve, poor fit]. `CCOC(=O)c1c(C)[nH]c(C)c1S(=O)(=O)N1CCC(C(=O)N2CCN(c3cc(C)ccc3C)CC2)CC1` was tested, and the max response, negative = inhibition was inactive: 13.1%. With `CC1(C)CC(N2CCCC2)=CC(=[N+]2CCCCC2)C1` the max response, negative = inhibition was inactive: -15.3%. In the case of `CCn1c(SCC(=O)Nc2ccc3c(c2)OCCO3)nnc1C(C)C`, the Potency is reported as inconclusive: 70.8 µM [inhibitor, single point]. With `c1ccc(CCN(Cc2ccccc2)Cc2nc(C3CC3)no2)cc1` the Potency was inconclusive: 89.1 µM [inhibitor, single point]. For `COCCn1c(=O)c(-c2cn(C)c3ccccc23)nc2cnc(Oc3ccccc3)nc21`, the max response, negative = inhibition was inactive: -9.31%. With `CCSc1ccc([C@@H]2[C@H]3C(=O)N(C)C(=O)[C@H]3[C@]3(C(=O)OC)CCCCN23)cc1` the Potency was inconclusive: 2.82 µM [inhibitor, partial curve, poor fit]. With `COc1ccc(-c2csc3ncnc(N4CCN(Cc5ccccc5)CC4)c23)cc1` the max response, negative = inhibition was inactive: -9.74%. In the case of `Cc1ccc(NC(=O)Cn2ccn(-c3ccccc3)c(=O)c2=O)cc1`, the max response, negative = inhibition is reported as inactive: -0.871%. `O=C(NC1CCCCC1)N1CCNCC1` was tested, and the Potency was inconclusive: 50.1 µM [inhibitor, partial curve]. For `COC1=C2C[C@H](C)C[C@H](OC)[C@@H](O)[C@@H](C)C=C(C)[C@H](OC(N)=O)[C@@H](OC)C=CC=C(C)C(=O)NC(=CC1=O)C2=O`, the Potency was inconclusive: 56.2 µM [inhibitor, partial curve, poor fit]. With `Cn1cccc1C(=O)N1CCC2(CCCN(Cc3ccc(C#N)cc3)C2)CC1` the Potency was inconclusive: 79.4 µM [inhibitor, partial curve, poor fit]. For `N#C/C(=C\c1cccc(OC(=O)c2cccs2)c1)C(N)=O`, the Potency was inconclusive: 89.1 µM [inhibitor, partial curve, poor fit]. In the case of `COC1C=CO[C@@]2(C)Oc3c(C)c(O)c4c(O)c(c5c(nc6cc(C)ccn65)c4c3C2=O)NC(=O)/C(C)=C\C=CC(C)C(O)[C@@H](C)C(O)C(C)[C@@H](OC(C)=O)C1C` (some centres undefined), the Potency is reported as inconclusive: 2.24 µM [inhibitor, full curve, poor fit]. With `CC(C)(C)N1C(=O)Cc2c1nc(N)c1c(N)nc(N3CCCCC3CO)c(C#N)c21` (centres undefined) the Potency was inconclusive: 89.1 µM [inhibitor, single point]. In the case of `O=C(CSc1nc2ccccc2n1CC(=O)N1CCOCC1)N1CCCC1`, the max response, negative = inhibition is reported as inactive: 10.8%. `FC(F)(F)c1ccc(CN2C[C@@H]3C(c4ccc(Cl)nc4)C4(c5cccnc5)CC3(C4)[C@H]2c2ccccc2)cc1` (some centres undefined) was tested, and the Potency was inconclusive: 89.1 µM [inhibitor, partial curve, poor fit]. With `O=C(O)c1ccc(N2CCCCC2)cc1` the max response, negative = inhibition was inactive: 7.68%. With `Cc1ccc(CN(C(=O)COc2ccc(Br)cc2)C2CCS(=O)(=O)C2)o1` (centres undefined) the Potency was inconclusive: 25.1 µM [inhibitor, partial curve]. With `Oc1ccc(NCc2ccccc2OCc2ccccc2F)cc1` the Potency was active: 39.8 µM. With `CSCc1nc2sc(C(=O)Nc3nc(C)cs3)c(C)c2c(=O)[nH]1` the max response, negative = inhibition was inactive: -1.2%. For `Cc1ccc(/C=C/C(=O)Nc2ccc([N+](=O)[O-])c(NC(=O)/C=C/c3ccc(C)o3)c2)o1`, the Potency was inconclusive: 100 µM [inhibitor, partial curve, poor fit]. For `O=C(CSc1ncn[nH]1)Nc1ccc(Cl)c(S(=O)(=O)N2CCOCC2)c1`, the max response, negative = inhibition was inactive: -3.36%. For `OC[C@@H]1[C@@H](c2ccc(Cl)cc2)C(c2ccc(F)cc2)=NN1c1ccccc1`, the Potency was inconclusive: 63.1 µM [inhibitor, partial curve, poor fit]. In the case of `COCCCNC(=O)c1ccc(-n2nc(C(F)(F)F)cc2-c2cccs2)cc1`, the max response, negative = inhibition is reported as inactive: -29.7%. With `O=C(c1cc2cc(Br)ccc2o1)N1CCCC1` the Potency was inconclusive: 17.8 µM [inhibitor, single point]. `CCS(=O)(=O)n1nc(-c2ccco2)nc1SC` was tested, and the Potency was inconclusive: 28.2 µM [inhibitor, single point]. With `Nc1ccc(S(=O)(=O)Nc2ccc(Cl)nn2)cc1` the Potency was inconclusive: 100 µM [inhibitor, single point]. For `COc1ccc(C)cc1Nc1n[n+](-c2ccccc2)c(-c2c(Cl)cccc2Cl)s1`, the max response, negative = inhibition was inactive: -23.5%. For `CCc1cc2c(=O)n(Cc3ccco3)c(SCC(=O)N(C)C3CCS(=O)(=O)C3)nc2s1` (centres undefined), the Potency was inconclusive: 56.2 µM [inhibitor, single point]. In the case of `CCOc1ccc(-n2nc(CO)c(C(=O)NCCCc3ccccc3)n2)cc1`, the max response, negative = inhibition is reported as inactive: -2.65%. For `Cc1cc(C)c(C)c(OC(=O)c2sc(Cl)nc2C)c1`, the Potency was inconclusive: 79.4 µM [inhibitor, single point]. With `Cn1c(=O)c2c(O)c(Cc3ccccc3)c(=O)[nH]c2n(C)c1=O` the max response, negative = inhibition was inactive: -20.5%. For `O=[N+]([O-])c1ccccc1NC(=S)N/N=C/c1ccc(O)c(O)c1`, the Potency was inconclusive: 12.6 µM [inhibitor, partial curve, poor fit]. With `CC(=O)Nc1ccccc1NC(=O)c1cc(C)cc(C)c1` the Potency was inconclusive: 14.1 µM [inhibitor, full curve, poor fit]. `O=C(O)CCCNc1cc(N2CCN(C3CCCCC3)CC2)c2noc3c2c1C(=O)c1ccccc1-3` was tested, and the Potency was inconclusive: 50.1 µM [inhibitor, partial curve]. With `CCCc1cc(OC)c2c(c1)OCO2` the Potency was inconclusive: 50.1 µM [inhibitor, partial curve]. In the case of `CCCNC(=O)Cn1sc2nc(C)cc(C)c2c1=O`, the Potency is reported as active: 5.01 µM. For `Cc1ccc(C)c(OCc2cc(C(=O)N3CCOCC3)no2)c1`, the Potency was inconclusive: 79.4 µM [inhibitor, partial curve, poor fit]. In the case of `OC[C@H]1O[C@@H](n2cnc3c(N[C@H]4C[C@H]5CC[C@@H]4C5)ncnc32)[C@H](O)[C@@H]1O`, the max response, negative = inhibition is reported as inactive: 1.33%. In the case of `CC1=C([N+](=O)[O-])C(c2ccc(Cl)cc2)NC(=O)N1C` (centres undefined), the Potency is reported as inconclusive: 22.4 µM [inhibitor, partial curve, poor fit]. With `Cc1noc(C)c1COC(=O)/C=C/c1ccc(Cl)cc1` the Potency was inconclusive: 12.6 µM [inhibitor, partial curve]. For `Clc1ccccc1-c1nc(Nc2ccncc2)c2ccccc2n1`, the Potency was active: 35.5 µM. With `CCOC(=O)CC(=O)CSCC(=O)Nc1ccc(C)cc1` the Potency was inconclusive: 89.1 µM [inhibitor, partial curve, poor fit]. In the case of `O=C1C=C(c2c(O)ccc3ccccc23)c2ccccc2C1=O`, the Potency is reported as inconclusive: 7.08 µM [inhibitor, partial curve, poor fit]. `O=C1NC(=Nc2ccccc2Cl)S/C1=C\c1cccc([N+](=O)[O-])c1O` was tested, and the Potency was active: 79.4 µM.
